ChEMBL document CHEMBL1152843, “Synthesis of new series of 5,6-dihydro-4H-1,2-oxazines via hetero Diels-Alder reaction and evaluation of antimicrobial activity” (2009)

Experiments:
Type in all cases: functional
[1] = tested on: Pseudomonas aeruginosa; assay: Antibacterial activity against Pseudomonas aeruginosa MTCC 1688 at 20 ug after 24 hrs by cup diffusion method
Outline: (§1)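 Agar cup diffusion. Plates of sterile medium in 9 cm dishes were seeded with 1 × 10⁵ cfu of bacteria, with the suspension adjusted to at least 1 × 10⁵ cfu/ml in nutrient broth. Compound in DMF was placed in 5 mm cups and pre-diffused for 1 h. Plates were incubated at 37 °C for 24 h and the inhibition zone measured in mm. DMF served as negative control.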

[2] = tested on: Staphylococcus aureus; assay: Antibacterial activity against Staphylococcus aureus MTCC 737 at 20 ug after 24 hrs by cup diffusion method; outline: as §1
[3] = tested on: Escherichia coli; assay: Antibacterial activity against Escherichia coli MTCC 443 at 20 ug after 24 hrs by cup diffusion method; outline: as §1
[4] = tested on: Aspergillus niger; assay: Antifungal activity against Aspergillus niger at 20 ug after 48 hrs by cup diffusion method
Outline: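 Cup diffusion on 9 cm plates seeded with 1 × 10⁶ cfu of fungi, with spores adjusted to at least 1 × 10⁶ cfu/ml in potato dextrose broth. Compound in DMF was placed in 5 mm agar cups and left 1 h to diffuse. Plates were incubated at 28 °C for 48 h and the inhibition zone read in mm. DMF was the negative control.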

| Sequence | inhibition zone (IZ) [1] [mm] | inhibition zone (IZ) [2] [mm] | inhibition zone (IZ) [3] [mm] | inhibition zone (IZ) [4] [mm] |
| --- | --- | --- | --- | --- |
| GENTAMICIN | 12.6 | 24.6 | 10.2 |  |
| NYSTATIN |  |  |  | 11.5 |
